This is one part of the list.

By UniProt entry, the sequences of proteins in these tests, tags left out.
UniProt Q0JBA9, entry or part of it: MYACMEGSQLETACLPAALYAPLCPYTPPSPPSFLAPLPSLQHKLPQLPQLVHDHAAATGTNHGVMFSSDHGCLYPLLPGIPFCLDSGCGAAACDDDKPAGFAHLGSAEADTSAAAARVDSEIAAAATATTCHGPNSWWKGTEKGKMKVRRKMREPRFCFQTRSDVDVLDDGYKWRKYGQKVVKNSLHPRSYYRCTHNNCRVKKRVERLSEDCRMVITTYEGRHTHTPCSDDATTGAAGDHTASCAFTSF

In this test the target is OsWRKY34 (Oryza sativa, UniProt Q0JBA9 1-250). Nature of the test: protein-binding microarray (RPBM); PBS, 2% BSA, 51.3 ng/ul salmon testes DNA, 50 uM zinc acetate, 200 nM TF, 25 C, 1 h; high values mean tight binding. The settings on record: protein: recombinant; tags: N-terminal polyhistidine and DsRed monomer fusion (pET32a); label: CyDye5-dUTP incorporated in the synthesized complementary strand; 3' TTTTT single-stranded linker to array surface; dsDNA, one strand shown. In a few lines:
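Transcription factors, each fused N-terminally to a polyhistidine tag and DsRed, were expressed in E. coli BL21-CodonPlus and purified on Ni–NTA. A custom Agilent array was made double-stranded by primer extension with Cy5-dUTP and blocked with 2% BSA. It was incubated with 200 nM protein in PBS, 2% BSA, salmon testes DNA and 50 µM zinc acetate at 25 °C for 1 h, then washed. The binding signal is per-feature fluorescence intensity (arbitrary units) read on an Axon 4000B scanner.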
For the sequence “TATCTGCAGGTCAACTCCATCCTTGTCGCCGCCACACAAACGGAGTCACCTAGTGCAG”, the binding signal is 8310 fluorescence intensity (a.u.).

For “ATCCAGGTTCTTGCCTCTTCCTTTATTTTTGCTATAAGATCGGAGTCACCTAGTGCAG”, the binding signal was 10700 fluorescence intensity (a.u.).

As for “GACTTTTTATCCAACGTTTGACCATTCGTCTTATTCAAAACGGAGTCACCTAGTGCAG”, the binding signal was 10300 fluorescence intensity (a.u.).

In the case of “GACCACCCCACTCCGCGCCACTGTCCACGTCTGCATAGTCCGGAGTCACCTAGTGCAG”, the binding signal was 11800 fluorescence intensity (a.u.).

As to “AGTGCATGGGTTCTCTGTAGCGCTCGTCCCCATTGTTGTCCGGAGTCACCTAGTGCAG”, the binding signal was 11500 fluorescence intensity (a.u.).

For the sequence “CGATGGTGGCATGGGGTTGCTAAGCTAATTTGACCGCTGACGGAGTCACCTAGTGCAG”, the binding signal is 8400 fluorescence intensity (a.u.).

Consider “TTTGGGTGGAGGGGTGTTGGCCCTATGTAATGGATGGGAGCGGAGTCACCTAGTGCAG”, for which the binding signal is 12600 fluorescence intensity (a.u.).

For the sequence “GATTTTTCTCTCCTTCGCATGGAAGGATCCGGTTATTATACGGAGTCACCTAGTGCAG”, the binding signal is 9760 fluorescence intensity (a.u.).

With “CTACATTACCACGCATCCAACCAACGAACTAACCATACAACGGAGTCACCTAGTGCAG”, the binding signal was 8050 fluorescence intensity (a.u.).

On to “ATTGGATACATGTCATTGTAAGTTTGTAACTCTACCAGTTCGGAGTCACCTAGTGCAG”, for which the binding signal is 9790 fluorescence intensity (a.u.).

For the sequence “CCGTGAAACCAAGCGCATACACTGCTTATTTTTTTCGTCTCGGAGTCACCTAGTGCAG”, the binding signal was 8330 fluorescence intensity (a.u.).

As to “GTGTTATATCTGGTATTGTGGTTTAGAGACGAATTTTAGACGGAGTCACCTAGTGCAG”, the binding signal is 8340 fluorescence intensity (a.u.).

As for “GATTGTTGTCCTAATTAGCTTCTCCTGATCCGATATTCAACGGAGTCACCTAGTGCAG”, the binding signal was 10400 fluorescence intensity (a.u.).

For “GGCTGATGATGTTCTTGTTACGTTTTTAGTTTTCCTTTTTCGGAGTCACCTAGTGCAG”, the binding signal is 8580 fluorescence intensity (a.u.).

With “AACCTTCTCACTGATTAACACCTTAGAGTTAGTTAATAACCGGAGTCACCTAGTGCAG”, the binding signal was 8740 fluorescence intensity (a.u.).

Consider “ACCTCCCAGCCACTGGAGCACCGGCGCGCCGCTCATCTCTCGGAGTCACCTAGTGCAG”, for which the binding signal was 10200 fluorescence intensity (a.u.).

For the sequence “CTATTATTGATTGCTCTACGGATGGCATGGATGGAGGTTGCGGAGTCACCTAGTGCAG”, the binding signal is 8530 fluorescence intensity (a.u.).

“GCCACACAGCTCTCTCTGCCGTTGTTTTCTTCCACGCGCTCGGAGTCACCTAGTGCAG”: the binding signal was 12900 fluorescence intensity (a.u.).

Regarding “TACTTTGTCCCAAAATGAAACTATTTTTCTACCTACCTTCCGGAGTCACCTAGTGCAG”, the binding signal is 8120 fluorescence intensity (a.u.).

Turning to “GATTGATGCTGAACCTTTCTGCTGTTTCTTGTGCTATGTACGGAGTCACCTAGTGCAG”, the binding signal is 8110 fluorescence intensity (a.u.).

On to “AAAATCAAATCTTTTTAATTAATTAATTGCTGTTTAGTACCGGAGTCACCTAGTGCAG”, for which the binding signal was 8720 fluorescence intensity (a.u.).

Turning to “CACCACCTGCACCTTGCCCTGCTTGTCGTCCTCGAATTTCCGGAGTCACCTAGTGCAG”, the binding signal was 13700 fluorescence intensity (a.u.).

For the sequence “GTCCTGGCCAGTGGCCACTGGGGTTCCACTTGCAATTCTTCGGAGTCACCTAGTGCAG”, the binding signal is 8580 fluorescence intensity (a.u.).

As for “AAGATCTGGCTTGGTGCCCTACTTTTTTTTCTCTCTCTCTCGGAGTCACCTAGTGCAG”, the binding signal is 8260 fluorescence intensity (a.u.).

With “CTATTTTTCTCATCGCCTCACCATGTTTAGTTTCTCTAGTCGGAGTCACCTAGTGCAG”, the binding signal is 8970 fluorescence intensity (a.u.).

Regarding “GTGGGAAGGGGAATGACCGTTGTGTGGTAGTTCGGGGTGGCGGAGTCACCTAGTGCAG”, the binding signal was 11100 fluorescence intensity (a.u.).

For the sequence “GCTCCTGGATTGCATGCATGCACCACCTTTGTTTGCTGCTCGGAGTCACCTAGTGCAG”, the binding signal was 8400 fluorescence intensity (a.u.).

As for “TTCTAGAAATCTCTTGTGCATTTTACGGTCCTACCTCGTGCGGAGTCACCTAGTGCAG”, the binding signal was 9240 fluorescence intensity (a.u.).

As to “CATGAGTCATCATCTCATCTTATATGAGTCATGACCGCATCGGAGTCACCTAGTGCAG”, the binding signal was 8460 fluorescence intensity (a.u.).

As to “CTGTTGTGATATTTTCTTTTTCTTTCGAGACGGTTTGTTTCGGAGTCACCTAGTGCAG”, the binding signal is 9950 fluorescence intensity (a.u.).

“GGTGTGATTTTTGTTTGCTTGTGTTGTTACTCTGGTGCAACGGAGTCACCTAGTGCAG”: the binding signal is 14300 fluorescence intensity (a.u.).

In the case of “TCTACTTCCTGGTGGCCGCACGCCTCATTCTCGCTTTAGACGGAGTCACCTAGTGCAG”, the binding signal is 12300 fluorescence intensity (a.u.).

Turning to “ATTGAGCATTGTTTACTAATTCCCGCATCACCTAGTTTCTCGGAGTCACCTAGTGCAG”, the binding signal is 8950 fluorescence intensity (a.u.).

“TTTGTTTTCCTAGCCTCTCTTACGCACAGGGAGGTGGGGCCGGAGTCACCTAGTGCAG”: the binding signal is 10100 fluorescence intensity (a.u.).

Regarding “TCGCCTTCCGCTCTCTCGCGCGCGGTCGCGCCGCGCGCCGCGGAGTCACCTAGTGCAG”, the binding signal is 9510 fluorescence intensity (a.u.).

Consider “AGGGGAGGTTCATTACTTTCGATTGGTCAACAACGCAAGCCGGAGTCACCTAGTGCAG”, for which the binding signal was 10400 fluorescence intensity (a.u.).

On to “CCATCACCGCCTATCCCACGCTCACCCATCTCTTCCCATCCGGAGTCACCTAGTGCAG”, for which the binding signal is 9300 fluorescence intensity (a.u.).

For the sequence “CACCCACGCTAGCAATTTTCTTCTGTCAATTCCTTTCACCCGGAGTCACCTAGTGCAG”, the binding signal was 8760 fluorescence intensity (a.u.).

For “TGTTTTTCACGATTTTTCAACTCTTACCTCGTTTTCACCGCGGAGTCACCTAGTGCAG”, the binding signal is 8240 fluorescence intensity (a.u.).

Turning to “ATCCCCAGCCTCATCGCCGTGAACCGGTCGCCGTCCACCGCGGAGTCACCTAGTGCAG”, the binding signal was 8540 fluorescence intensity (a.u.).

As for “TCCGCGCCTCGTCGACCTCGGCTCCGGCCACCGATCGATGCGGAGTCACCTAGTGCAG”, the binding signal is 8280 fluorescence intensity (a.u.).

For the sequence “TGGCTGCGAACCACACACCCGATGTGTCCCCACTGCCTTTCGGAGTCACCTAGTGCAG”, the binding signal is 8100 fluorescence intensity (a.u.).

Values taken from PMC7819943, “Rice protein-binding microarrays: a tool to detect cis-acting elements near promoter regions in rice”.
